Experimental data taken from article PMC3405102, “Solution Structure of the LIM-Homeodomain Transcription Factor Complex Lhx3/Ldb1 and the Effects of a Pituitary Mutation on Key Lhx3 Interactions” (PLoS ONE, 2012).
No constants are given. Whether binding was seen depends on the method and setting.

The chains behind the UniProt entries cited, without tags or fusion partners. Where a name states a change or a piece, a line headed by the entry shows the natural chain unless it says otherwise.
UniProt P50481: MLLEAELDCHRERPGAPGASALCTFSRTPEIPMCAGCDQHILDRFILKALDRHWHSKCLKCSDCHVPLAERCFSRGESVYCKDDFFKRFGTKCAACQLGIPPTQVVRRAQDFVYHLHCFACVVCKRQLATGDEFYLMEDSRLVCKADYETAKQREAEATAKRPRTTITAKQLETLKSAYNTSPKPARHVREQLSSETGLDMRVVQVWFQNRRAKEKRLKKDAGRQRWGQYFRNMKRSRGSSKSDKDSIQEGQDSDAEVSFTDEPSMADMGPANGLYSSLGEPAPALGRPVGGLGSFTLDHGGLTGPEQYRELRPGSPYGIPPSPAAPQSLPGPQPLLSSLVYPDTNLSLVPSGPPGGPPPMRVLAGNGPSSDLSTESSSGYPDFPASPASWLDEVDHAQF

Target: Ldb1-Lhx3 tethered complex (mouse) (UniProt P70662+P50481)
Assay: SAXS; Ldb1-Lhx3 tethered complex at 4.5 mg mL^-1 in 20 mM Na2HPO4, 40 mM NaCl, 1 mM DTT, pH 6.8, 283 K; mass from I(0), Guinier analysis, DAMMIF and BUNCH modelling; both purified

binding: no binding (tested: 4.5 mg mL^-1)
B1: Ldb1-Lhx3 tethered complex (protein, UniProt P70662-3 300-339; P50481-1 28-153)
chain: DVMVVGEPTLMGGEFGDEDERLITRLENTQFDAANGIDDEGGSGGHMGSGGTPEIPMCAGCDQHILDRFILKALDRHWHSKCLKCSDCHVPLAERCFSRGESVYCKDDFFKRFGTKCAACQLGIPPTQVVRRAQDFVYHLHCFACVVCKRQLATGDEFYLMEDSRLVCKADYETAKQ
